Test results reported in doi:10.1101/2024.09.28.615612.
Where two headings read alike, the source gives them in different places. No constants are given. Whether binding was seen depends on the method and setting. In cells and extracts the contact can be indirect. Some results given as binding are weak or reduced against the parent protein; the word gives no strength. Where a sequence is shown, tags or fusion partners need not be part of it.

Amino acid sequences for entries named in this document (tags omitted).
UniProt Q99L90: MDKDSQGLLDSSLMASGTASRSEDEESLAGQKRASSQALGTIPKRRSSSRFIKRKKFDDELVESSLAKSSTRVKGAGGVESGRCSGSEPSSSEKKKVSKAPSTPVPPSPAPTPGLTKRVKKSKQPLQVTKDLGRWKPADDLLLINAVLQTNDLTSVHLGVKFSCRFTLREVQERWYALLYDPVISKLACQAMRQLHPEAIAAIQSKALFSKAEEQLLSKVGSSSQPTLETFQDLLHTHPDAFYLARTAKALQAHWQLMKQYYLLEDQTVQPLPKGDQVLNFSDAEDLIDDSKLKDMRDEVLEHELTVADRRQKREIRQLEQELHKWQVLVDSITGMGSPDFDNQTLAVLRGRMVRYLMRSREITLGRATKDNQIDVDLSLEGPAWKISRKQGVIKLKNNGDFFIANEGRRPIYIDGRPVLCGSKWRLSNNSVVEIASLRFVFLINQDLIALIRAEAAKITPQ

Key:
Assay in all cases: co-IP
Flag-tagged SIX1 (mouse) [1] = molecular target: T1, Flag-tagged SIX1 (mouse) (UniProt Q62231)
T1 sequence: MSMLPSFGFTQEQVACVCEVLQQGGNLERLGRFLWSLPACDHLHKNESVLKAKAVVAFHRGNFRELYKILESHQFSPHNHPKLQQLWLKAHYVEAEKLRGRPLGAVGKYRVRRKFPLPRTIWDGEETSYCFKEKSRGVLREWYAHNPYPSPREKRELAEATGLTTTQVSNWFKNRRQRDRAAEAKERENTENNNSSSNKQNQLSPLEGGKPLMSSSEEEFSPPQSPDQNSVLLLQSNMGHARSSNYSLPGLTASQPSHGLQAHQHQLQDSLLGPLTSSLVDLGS

[2] = molecular target: Myc-tagged MCRS1 (Mus musculus) (UniProt Q99L90)
[3] = molecular target: T2, Myc-tagged SOBP (Mus musculus) (UniProt Q0P5V2)
T2 sequence: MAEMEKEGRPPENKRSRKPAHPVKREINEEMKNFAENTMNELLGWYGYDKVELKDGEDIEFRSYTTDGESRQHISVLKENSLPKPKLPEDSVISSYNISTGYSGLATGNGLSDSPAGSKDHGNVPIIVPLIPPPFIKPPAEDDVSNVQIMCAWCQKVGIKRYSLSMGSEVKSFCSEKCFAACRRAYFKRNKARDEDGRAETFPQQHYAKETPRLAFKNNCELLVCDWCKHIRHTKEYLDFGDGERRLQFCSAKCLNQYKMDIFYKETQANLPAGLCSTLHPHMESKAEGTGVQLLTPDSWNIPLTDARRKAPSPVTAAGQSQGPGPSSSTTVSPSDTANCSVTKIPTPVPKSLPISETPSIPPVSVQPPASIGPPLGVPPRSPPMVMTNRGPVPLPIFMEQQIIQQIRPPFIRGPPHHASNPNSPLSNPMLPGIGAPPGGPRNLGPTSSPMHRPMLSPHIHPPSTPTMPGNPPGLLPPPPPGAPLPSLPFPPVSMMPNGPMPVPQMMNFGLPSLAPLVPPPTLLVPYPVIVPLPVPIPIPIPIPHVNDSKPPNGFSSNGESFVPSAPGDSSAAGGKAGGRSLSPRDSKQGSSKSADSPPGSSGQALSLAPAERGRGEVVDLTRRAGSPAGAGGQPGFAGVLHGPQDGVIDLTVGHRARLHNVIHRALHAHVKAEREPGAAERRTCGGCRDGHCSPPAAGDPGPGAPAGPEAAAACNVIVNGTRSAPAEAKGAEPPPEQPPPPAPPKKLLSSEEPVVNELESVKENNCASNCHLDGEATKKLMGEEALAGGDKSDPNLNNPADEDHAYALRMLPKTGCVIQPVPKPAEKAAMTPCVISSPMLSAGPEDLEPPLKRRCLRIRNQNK

HA-tagged EYA2 (mouse) = molecular target: T3, HA-tagged EYA2 (mouse) (UniProt O08575)
T3 sequence: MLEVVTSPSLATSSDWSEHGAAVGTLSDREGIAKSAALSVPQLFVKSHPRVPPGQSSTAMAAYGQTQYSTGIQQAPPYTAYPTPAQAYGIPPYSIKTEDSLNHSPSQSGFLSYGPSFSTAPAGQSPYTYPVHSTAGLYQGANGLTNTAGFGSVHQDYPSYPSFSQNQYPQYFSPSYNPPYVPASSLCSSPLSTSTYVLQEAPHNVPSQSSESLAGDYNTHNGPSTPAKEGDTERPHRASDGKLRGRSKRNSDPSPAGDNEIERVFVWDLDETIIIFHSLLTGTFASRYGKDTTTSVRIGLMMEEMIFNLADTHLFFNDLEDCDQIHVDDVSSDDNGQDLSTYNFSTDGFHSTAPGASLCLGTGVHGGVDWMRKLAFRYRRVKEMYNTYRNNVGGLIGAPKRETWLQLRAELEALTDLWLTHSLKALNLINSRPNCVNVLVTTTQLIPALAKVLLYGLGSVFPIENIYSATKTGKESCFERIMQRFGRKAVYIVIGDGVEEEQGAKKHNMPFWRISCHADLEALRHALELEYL

Flag-tagged SIX1 (mouse) [4] = molecular target: T1, Flag-tagged SIX1 (mouse); remark: listed apart in the source
HA-tagged EYA1 (mouse) = molecular target: T4, HA-tagged EYA1 (mouse) (UniProt P97767)
T4 sequence: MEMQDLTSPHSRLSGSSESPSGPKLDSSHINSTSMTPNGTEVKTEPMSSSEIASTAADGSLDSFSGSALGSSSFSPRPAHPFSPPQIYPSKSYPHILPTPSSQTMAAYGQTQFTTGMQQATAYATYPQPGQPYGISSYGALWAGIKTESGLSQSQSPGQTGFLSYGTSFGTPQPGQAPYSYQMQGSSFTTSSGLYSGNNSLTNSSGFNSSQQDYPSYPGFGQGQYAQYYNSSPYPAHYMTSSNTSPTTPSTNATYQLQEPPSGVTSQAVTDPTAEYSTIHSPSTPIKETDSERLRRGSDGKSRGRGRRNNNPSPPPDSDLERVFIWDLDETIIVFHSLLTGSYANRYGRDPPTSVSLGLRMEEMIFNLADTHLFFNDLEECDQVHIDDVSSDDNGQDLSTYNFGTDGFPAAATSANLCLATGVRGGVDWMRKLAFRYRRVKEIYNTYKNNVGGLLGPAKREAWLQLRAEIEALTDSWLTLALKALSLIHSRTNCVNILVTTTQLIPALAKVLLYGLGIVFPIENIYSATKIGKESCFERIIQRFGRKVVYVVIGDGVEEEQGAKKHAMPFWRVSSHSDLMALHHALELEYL

## Myc-tagged MCRS1 (from UniProt Q99L90 1-462)
Flag-tagged SIX1 (mouse) [1]
  binding: binds

B1: Flag-tagged SIX1 (protein, UniProt Q62231 1-284)
chain: MSMLPSFGFTQEQVACVCEVLQQGGNLERLGRFLWSLPACDHLHKNESVLKAKAVVAFHRGNFRELYKILESHQFSPHNHPKLQQLWLKAHYVEAEKLRGRPLGAVGKYRVRRKFPLPRTIWDGEETSYCFKEKSRGVLREWYAHNPYPSPREKRELAEATGLTTTQVSNWFKNRRQRDRAAEAKERENTENNNSSSNKQNQLSPLEGGKPLMSSSEEEFSPPQSPDQNSVLLLQSNMGHARSSNYSLPGLTASQPSHGLQAHQHQLQDSLLGPLTSSLVDLGS
[2]
  binding: binds
[3]
  binding: binds

B2: HA-tagged EYA1 (protein, UniProt P97767 1-591)
chain: MEMQDLTSPHSRLSGSSESPSGPKLDSSHINSTSMTPNGTEVKTEPMSSSEIASTAADGSLDSFSGSALGSSSFSPRPAHPFSPPQIYPSKSYPHILPTPSSQTMAAYGQTQFTTGMQQATAYATYPQPGQPYGISSYGALWAGIKTESGLSQSQSPGQTGFLSYGTSFGTPQPGQAPYSYQMQGSSFTTSSGLYSGNNSLTNSSGFNSSQQDYPSYPGFGQGQYAQYYNSSPYPAHYMTSSNTSPTTPSTNATYQLQEPPSGVTSQAVTDPTAEYSTIHSPSTPIKETDSERLRRGSDGKSRGRGRRNNNPSPPPDSDLERVFIWDLDETIIVFHSLLTGSYANRYGRDPPTSVSLGLRMEEMIFNLADTHLFFNDLEECDQVHIDDVSSDDNGQDLSTYNFGTDGFPAAATSANLCLATGVRGGVDWMRKLAFRYRRVKEIYNTYKNNVGGLLGPAKREAWLQLRAEIEALTDSWLTLALKALSLIHSRTNCVNILVTTTQLIPALAKVLLYGLGIVFPIENIYSATKIGKESCFERIIQRFGRKVVYVVIGDGVEEEQGAKKHAMPFWRVSSHSDLMALHHALELEYL
[3]
  binding: binds

B3: HA-tagged EYA2 (protein, UniProt O08575 1-532)
chain: MLEVVTSPSLATSSDWSEHGAAVGTLSDREGIAKSAALSVPQLFVKSHPRVPPGQSSTAMAAYGQTQYSTGIQQAPPYTAYPTPAQAYGIPPYSIKTEDSLNHSPSQSGFLSYGPSFSTAPAGQSPYTYPVHSTAGLYQGANGLTNTAGFGSVHQDYPSYPSFSQNQYPQYFSPSYNPPYVPASSLCSSPLSTSTYVLQEAPHNVPSQSSESLAGDYNTHNGPSTPAKEGDTERPHRASDGKLRGRSKRNSDPSPAGDNEIERVFVWDLDETIIIFHSLLTGTFASRYGKDTTTSVRIGLMMEEMIFNLADTHLFFNDLEDCDQIHVDDVSSDDNGQDLSTYNFSTDGFHSTAPGASLCLGTGVHGGVDWMRKLAFRYRRVKEMYNTYRNNVGGLIGAPKRETWLQLRAELEALTDLWLTHSLKALNLINSRPNCVNVLVTTTQLIPALAKVLLYGLGSVFPIENIYSATKTGKESCFERIMQRFGRKAVYIVIGDGVEEEQGAKKHNMPFWRISCHADLEALRHALELEYL
[3]
  binding: binds

B4: Myc-tagged SOBP (protein, UniProt Q0P5V2 1-864)
chain: MAEMEKEGRPPENKRSRKPAHPVKREINEEMKNFAENTMNELLGWYGYDKVELKDGEDIEFRSYTTDGESRQHISVLKENSLPKPKLPEDSVISSYNISTGYSGLATGNGLSDSPAGSKDHGNVPIIVPLIPPPFIKPPAEDDVSNVQIMCAWCQKVGIKRYSLSMGSEVKSFCSEKCFAACRRAYFKRNKARDEDGRAETFPQQHYAKETPRLAFKNNCELLVCDWCKHIRHTKEYLDFGDGERRLQFCSAKCLNQYKMDIFYKETQANLPAGLCSTLHPHMESKAEGTGVQLLTPDSWNIPLTDARRKAPSPVTAAGQSQGPGPSSSTTVSPSDTANCSVTKIPTPVPKSLPISETPSIPPVSVQPPASIGPPLGVPPRSPPMVMTNRGPVPLPIFMEQQIIQQIRPPFIRGPPHHASNPNSPLSNPMLPGIGAPPGGPRNLGPTSSPMHRPMLSPHIHPPSTPTMPGNPPGLLPPPPPGAPLPSLPFPPVSMMPNGPMPVPQMMNFGLPSLAPLVPPPTLLVPYPVIVPLPVPIPIPIPIPHVNDSKPPNGFSSNGESFVPSAPGDSSAAGGKAGGRSLSPRDSKQGSSKSADSPPGSSGQALSLAPAERGRGEVVDLTRRAGSPAGAGGQPGFAGVLHGPQDGVIDLTVGHRARLHNVIHRALHAHVKAEREPGAAERRTCGGCRDGHCSPPAAGDPGPGAPAGPEAAAACNVIVNGTRSAPAEAKGAEPPPEQPPPPAPPKKLLSSEEPVVNELESVKENNCASNCHLDGEATKKLMGEEALAGGDKSDPNLNNPADEDHAYALRMLPKTGCVIQPVPKPAEKAAMTPCVISSPMLSAGPEDLEPPLKRRCLRIRNQNK
HA-tagged EYA2 (mouse)
  binding: binds
Flag-tagged SIX1 (mouse) [4]
  binding: binds
HA-tagged EYA1 (mouse)
  binding: binds
